Laboratory results reported in the supplement of paper PMC10849652.
The list shows a part of the results.

Sequences of proteins named here, by UniProt entry; tags and fusion partners are left off. A change or cut given only in a name is not applied to a line headed by its entry.
UniProt Q6PFW1: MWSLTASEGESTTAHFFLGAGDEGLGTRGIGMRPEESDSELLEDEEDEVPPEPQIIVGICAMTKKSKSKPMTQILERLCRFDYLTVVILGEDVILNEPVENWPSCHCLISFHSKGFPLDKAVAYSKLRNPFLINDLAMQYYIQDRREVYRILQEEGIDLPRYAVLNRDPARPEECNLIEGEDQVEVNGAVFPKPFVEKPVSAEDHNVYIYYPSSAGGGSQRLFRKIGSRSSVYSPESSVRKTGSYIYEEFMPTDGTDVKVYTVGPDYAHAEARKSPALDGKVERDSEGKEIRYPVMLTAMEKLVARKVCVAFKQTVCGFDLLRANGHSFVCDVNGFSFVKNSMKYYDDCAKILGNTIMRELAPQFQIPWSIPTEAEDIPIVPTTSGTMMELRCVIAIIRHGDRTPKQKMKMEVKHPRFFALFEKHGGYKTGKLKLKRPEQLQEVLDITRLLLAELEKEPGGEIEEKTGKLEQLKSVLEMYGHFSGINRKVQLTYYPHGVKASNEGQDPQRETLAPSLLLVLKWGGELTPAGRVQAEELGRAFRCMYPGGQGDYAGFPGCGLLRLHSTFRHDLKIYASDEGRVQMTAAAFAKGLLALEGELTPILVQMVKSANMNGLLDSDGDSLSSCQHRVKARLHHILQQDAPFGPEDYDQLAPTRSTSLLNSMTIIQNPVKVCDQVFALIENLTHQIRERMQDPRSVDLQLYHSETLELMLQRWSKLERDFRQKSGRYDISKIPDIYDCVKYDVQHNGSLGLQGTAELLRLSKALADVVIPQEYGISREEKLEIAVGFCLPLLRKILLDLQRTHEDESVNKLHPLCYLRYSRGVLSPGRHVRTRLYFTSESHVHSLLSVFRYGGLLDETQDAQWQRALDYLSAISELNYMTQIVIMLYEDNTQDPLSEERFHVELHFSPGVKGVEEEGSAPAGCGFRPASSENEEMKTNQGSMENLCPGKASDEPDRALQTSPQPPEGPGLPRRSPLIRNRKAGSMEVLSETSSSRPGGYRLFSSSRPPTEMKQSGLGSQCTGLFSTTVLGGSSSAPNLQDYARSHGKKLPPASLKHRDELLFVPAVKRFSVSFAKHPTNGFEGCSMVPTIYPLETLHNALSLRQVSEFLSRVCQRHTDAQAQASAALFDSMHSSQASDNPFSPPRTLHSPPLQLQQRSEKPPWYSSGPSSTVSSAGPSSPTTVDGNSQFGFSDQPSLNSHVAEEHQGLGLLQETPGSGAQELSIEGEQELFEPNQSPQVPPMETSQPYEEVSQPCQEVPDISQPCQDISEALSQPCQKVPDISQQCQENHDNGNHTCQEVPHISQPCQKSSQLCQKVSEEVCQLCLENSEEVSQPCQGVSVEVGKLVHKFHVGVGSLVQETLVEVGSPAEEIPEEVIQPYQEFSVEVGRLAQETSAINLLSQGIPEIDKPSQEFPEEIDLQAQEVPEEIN
UniProt Q9H875: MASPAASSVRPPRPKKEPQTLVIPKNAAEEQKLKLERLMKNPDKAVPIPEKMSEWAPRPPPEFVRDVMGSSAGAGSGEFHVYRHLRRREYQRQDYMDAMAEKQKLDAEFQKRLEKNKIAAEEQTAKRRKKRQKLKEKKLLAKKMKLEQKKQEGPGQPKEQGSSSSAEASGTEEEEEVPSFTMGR
UniProt O94906: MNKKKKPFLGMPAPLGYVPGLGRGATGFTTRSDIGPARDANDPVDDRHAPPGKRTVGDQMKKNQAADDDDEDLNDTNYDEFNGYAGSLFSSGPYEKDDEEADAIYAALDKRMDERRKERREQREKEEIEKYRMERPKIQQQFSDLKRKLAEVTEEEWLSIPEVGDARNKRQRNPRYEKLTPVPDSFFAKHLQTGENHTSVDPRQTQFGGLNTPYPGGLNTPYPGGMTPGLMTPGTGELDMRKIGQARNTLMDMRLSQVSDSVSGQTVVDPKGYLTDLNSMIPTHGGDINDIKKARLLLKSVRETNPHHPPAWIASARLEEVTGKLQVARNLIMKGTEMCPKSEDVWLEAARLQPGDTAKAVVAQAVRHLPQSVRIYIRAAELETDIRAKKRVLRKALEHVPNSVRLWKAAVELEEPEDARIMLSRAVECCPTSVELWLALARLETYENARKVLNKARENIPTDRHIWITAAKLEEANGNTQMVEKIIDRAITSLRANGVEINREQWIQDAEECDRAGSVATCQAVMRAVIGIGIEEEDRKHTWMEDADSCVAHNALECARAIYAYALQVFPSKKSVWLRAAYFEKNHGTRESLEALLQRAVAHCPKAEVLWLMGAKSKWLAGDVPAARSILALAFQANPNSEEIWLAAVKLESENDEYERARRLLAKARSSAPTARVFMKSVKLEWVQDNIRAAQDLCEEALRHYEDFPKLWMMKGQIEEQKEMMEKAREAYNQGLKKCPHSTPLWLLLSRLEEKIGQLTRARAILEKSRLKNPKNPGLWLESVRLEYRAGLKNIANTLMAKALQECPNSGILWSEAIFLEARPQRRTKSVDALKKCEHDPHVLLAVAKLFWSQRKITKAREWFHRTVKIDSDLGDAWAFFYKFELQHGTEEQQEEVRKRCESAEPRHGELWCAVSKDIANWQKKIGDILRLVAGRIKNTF
UniProt Q13523: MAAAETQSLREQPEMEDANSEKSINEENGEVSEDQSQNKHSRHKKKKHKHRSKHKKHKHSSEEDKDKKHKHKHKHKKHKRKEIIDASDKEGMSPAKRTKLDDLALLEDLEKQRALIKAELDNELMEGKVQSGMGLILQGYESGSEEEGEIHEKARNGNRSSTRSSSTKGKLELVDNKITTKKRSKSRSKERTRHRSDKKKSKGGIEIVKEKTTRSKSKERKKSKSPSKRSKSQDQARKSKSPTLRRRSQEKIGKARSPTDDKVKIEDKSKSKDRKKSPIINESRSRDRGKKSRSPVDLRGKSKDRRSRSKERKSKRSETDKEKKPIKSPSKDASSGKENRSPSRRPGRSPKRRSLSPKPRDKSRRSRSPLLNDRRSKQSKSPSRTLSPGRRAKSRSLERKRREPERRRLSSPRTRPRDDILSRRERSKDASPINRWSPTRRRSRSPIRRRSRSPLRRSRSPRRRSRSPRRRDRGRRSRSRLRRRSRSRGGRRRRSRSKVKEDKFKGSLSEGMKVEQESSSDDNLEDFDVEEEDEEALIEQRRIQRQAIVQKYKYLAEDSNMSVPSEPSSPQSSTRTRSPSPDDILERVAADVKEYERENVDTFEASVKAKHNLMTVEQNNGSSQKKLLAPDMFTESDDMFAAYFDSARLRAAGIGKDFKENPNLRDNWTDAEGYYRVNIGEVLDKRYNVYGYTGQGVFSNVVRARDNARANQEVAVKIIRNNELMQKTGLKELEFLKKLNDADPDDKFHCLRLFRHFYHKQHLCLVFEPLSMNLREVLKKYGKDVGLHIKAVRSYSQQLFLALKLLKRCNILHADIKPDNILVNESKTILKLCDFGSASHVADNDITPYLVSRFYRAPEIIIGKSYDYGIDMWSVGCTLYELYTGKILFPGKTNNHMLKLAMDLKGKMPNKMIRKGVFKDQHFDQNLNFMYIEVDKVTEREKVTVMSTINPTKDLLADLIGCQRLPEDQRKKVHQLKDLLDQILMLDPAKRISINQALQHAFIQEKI
UniProt O15091: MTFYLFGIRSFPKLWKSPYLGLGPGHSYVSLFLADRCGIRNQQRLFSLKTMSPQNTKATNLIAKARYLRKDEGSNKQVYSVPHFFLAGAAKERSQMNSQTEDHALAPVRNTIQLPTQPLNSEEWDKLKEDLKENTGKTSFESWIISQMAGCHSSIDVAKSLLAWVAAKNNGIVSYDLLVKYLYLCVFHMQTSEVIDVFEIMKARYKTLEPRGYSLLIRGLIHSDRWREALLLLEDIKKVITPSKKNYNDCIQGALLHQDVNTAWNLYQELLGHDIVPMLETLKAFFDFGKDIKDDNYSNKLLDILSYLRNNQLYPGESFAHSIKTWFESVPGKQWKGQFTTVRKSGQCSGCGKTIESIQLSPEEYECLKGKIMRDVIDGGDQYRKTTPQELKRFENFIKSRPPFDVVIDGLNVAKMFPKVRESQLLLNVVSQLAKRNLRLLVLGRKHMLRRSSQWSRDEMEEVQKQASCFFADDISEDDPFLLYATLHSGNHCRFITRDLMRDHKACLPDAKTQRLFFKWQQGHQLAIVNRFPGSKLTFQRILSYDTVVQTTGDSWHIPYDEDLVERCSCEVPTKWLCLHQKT
UniProt P63098, whole entry, looked up: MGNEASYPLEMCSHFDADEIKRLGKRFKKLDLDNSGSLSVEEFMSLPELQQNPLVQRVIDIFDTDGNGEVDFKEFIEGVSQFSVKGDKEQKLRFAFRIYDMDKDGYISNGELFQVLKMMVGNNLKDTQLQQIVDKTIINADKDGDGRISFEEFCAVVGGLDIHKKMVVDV
UniProt O43447: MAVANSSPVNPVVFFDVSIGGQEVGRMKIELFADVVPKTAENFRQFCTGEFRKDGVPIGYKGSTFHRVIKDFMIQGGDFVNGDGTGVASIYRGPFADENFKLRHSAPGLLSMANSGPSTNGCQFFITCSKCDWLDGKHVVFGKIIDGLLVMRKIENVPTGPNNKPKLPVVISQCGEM
UniProt Q16537, whole entry, looked up: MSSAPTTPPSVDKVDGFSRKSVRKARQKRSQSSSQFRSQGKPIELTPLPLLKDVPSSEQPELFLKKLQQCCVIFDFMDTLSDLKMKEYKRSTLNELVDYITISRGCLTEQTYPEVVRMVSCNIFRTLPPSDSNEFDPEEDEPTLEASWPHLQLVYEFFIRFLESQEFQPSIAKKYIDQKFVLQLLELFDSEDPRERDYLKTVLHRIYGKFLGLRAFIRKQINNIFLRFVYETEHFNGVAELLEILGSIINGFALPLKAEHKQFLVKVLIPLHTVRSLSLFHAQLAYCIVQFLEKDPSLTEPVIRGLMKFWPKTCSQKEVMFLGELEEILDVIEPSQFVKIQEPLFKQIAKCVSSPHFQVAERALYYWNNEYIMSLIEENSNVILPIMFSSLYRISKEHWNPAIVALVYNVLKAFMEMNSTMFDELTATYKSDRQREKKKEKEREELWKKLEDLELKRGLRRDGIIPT
UniProt Q6IN85: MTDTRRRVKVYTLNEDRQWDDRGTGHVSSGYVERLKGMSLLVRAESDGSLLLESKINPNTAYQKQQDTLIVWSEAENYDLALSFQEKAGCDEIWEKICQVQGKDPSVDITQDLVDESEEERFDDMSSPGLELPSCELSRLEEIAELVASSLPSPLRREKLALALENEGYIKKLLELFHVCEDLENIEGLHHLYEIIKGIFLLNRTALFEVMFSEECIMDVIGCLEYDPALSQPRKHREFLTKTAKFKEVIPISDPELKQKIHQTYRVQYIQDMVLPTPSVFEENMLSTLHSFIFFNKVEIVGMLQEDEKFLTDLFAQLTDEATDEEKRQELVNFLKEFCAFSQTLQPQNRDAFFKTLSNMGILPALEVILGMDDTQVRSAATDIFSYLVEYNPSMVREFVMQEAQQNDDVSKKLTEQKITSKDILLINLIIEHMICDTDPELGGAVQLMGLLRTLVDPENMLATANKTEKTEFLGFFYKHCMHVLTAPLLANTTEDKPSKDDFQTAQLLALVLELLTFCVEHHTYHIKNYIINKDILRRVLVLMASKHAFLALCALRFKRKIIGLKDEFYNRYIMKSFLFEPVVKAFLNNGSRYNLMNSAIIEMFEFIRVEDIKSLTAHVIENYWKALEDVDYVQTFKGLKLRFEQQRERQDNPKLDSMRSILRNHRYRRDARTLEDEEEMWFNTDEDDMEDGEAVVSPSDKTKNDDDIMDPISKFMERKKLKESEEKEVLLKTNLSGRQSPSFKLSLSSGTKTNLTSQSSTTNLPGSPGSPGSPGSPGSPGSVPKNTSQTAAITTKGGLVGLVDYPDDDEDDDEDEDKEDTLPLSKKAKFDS
UniProt Q8WUA2: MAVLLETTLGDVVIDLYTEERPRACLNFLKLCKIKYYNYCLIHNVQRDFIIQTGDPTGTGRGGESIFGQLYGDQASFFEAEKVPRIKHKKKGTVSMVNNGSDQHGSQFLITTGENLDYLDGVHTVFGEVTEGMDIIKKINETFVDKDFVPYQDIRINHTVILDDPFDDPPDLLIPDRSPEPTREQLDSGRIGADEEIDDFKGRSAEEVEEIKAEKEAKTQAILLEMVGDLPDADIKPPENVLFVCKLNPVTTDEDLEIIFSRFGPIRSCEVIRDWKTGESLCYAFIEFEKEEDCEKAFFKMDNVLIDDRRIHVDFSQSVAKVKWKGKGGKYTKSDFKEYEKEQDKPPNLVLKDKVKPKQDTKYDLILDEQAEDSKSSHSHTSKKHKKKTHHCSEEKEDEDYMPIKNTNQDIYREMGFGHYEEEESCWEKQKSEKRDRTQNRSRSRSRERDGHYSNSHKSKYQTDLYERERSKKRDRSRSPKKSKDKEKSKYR
UniProt Q9Y3C6: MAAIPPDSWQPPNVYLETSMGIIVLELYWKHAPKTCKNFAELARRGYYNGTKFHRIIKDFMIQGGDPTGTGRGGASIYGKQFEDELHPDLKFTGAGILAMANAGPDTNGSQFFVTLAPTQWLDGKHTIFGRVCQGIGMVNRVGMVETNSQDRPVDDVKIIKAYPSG

Tests used:
Experiment in all cases: log2 fold change, soluble protein after heating vs DMSO (PISA); higher = thermal stabilisation; K562 lysate, 10 uM; active = over 0.2 and 3.5 SD of the protein, either way, in both replicates (recomputed)
[1] = compound: C=CC(=O)N1CCC[C@@H](n2nc(-c3ccc(Oc4ccccc4)cc3)c3c(N)ncnc32)C1 [ibrutinib]
Summary of the method: (§1)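 Pellets of K562 cells were dounce-homogenised in PBS pH 7.4 with 1 mM MgCl2, and the crude extract was held at 1 mg/mL protein for a 30 min treatment with 10 μM compound. Aliquots were heated for 3 min over 48°C-58°C and pooled before NP-40 was added to 0.5% at 4°C. The supernatant from 21,000xg for 90 min was quantified by TMTpro 16plex LC-MS/MS with channel sums equalised. Values are reported from duplicates as log-two fold change in thermal stability relative to solvent controls.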

[2] = compound: CC(=O)c1cnc2ccc(-c3cc(Cl)c(O)c(Cl)c3)nc2c1N[C@H]1CC[C@H](CN(C)C)CC1
Summary of the method: as §1

[3] = compound: CC(C)(C)Cn1c(N)nc2ccc(-c3[nH]c(C(C)(C)C)nc3-c3ccc(F)cc3)nc21 [ralimetinib]
Summary of the method: as §1

[4] = compound: CC(C)(O)CC(=O)NCCn1ccc2ncnc(Nc3ccc(Oc4cccc(C(F)(F)F)c4)c(Cl)c3)c21
Summary of the method: as §1

[5] = compound: CC(C)C1=C2N=C(C=C(N2N=C1)NCC3=CC=CC=C3)NCCCCCCN
Summary of the method: as §1

[6] = compound: CC1=C(C(CC(=O)N1)C2=CC=C(C=C2)C(F)(F)F)C(=O)NC3=C(C=C4C(=C3)C=NN4)F
Summary of the method: as §1

[7] = compound: CC1=C(C2=C(C=C1)C(=O)C3=CC=CC=C3N2CCCN)C
Summary of the method: as §1

[8] = compound: CC1=C(C=C(C=C1)NC(=O)C2=CC(=CC=C2)C(C)(C)C#N)NC3=CC4=C(C=C3)N=CN(C4=O)C
Summary of the method: as §1

[9] = compound: CC1=C(C=C(C=C1)NC(=O)C2=CC(=CC=C2)N(C)C)NC(=O)C3=CC=C(C=C3)O
Summary of the method: as §1

[10] = compound: CC1=CC=C(C=C1)SC2=C3C=C(SC3=CN=C2)C(=O)N
Summary of the method: as §1

Target	log2 fold change [1]	log2 fold change [2]	log2 fold change [3]	log2 fold change [4]	log2 fold change [5]	log2 fold change [6]	log2 fold change [7]	log2 fold change [8]	log2 fold change [9]	log2 fold change [10]
PRKAB1 (UniProt Q9Y478)	inactive: -0.012	inactive: -0.011	inactive: -0.044	inactive: -0.051	inactive: -0.024	inactive: -0.002	inactive: 0.035	inactive: -0.015	inactive: -0.033	inactive: -0.044
PPIP5K1 (UniProt Q6PFW1)	inactive: 0.014	inactive: -0.008	inactive: 0.037	inactive: 0.011	inactive: 0.046	inactive: 0.024	inactive: -0.072	inactive: -0.03	inactive: 0.027	inactive: 0.011
PRKRIP1 (UniProt Q9H875)	inactive: -0.036	inactive: 0.02	inactive: -0.023	inactive: -0.05	inactive: -0.022	inactive: -0.032	inactive: -0.013	inactive: -0.051	inactive: -0.045	inactive: -0.007
PRPF6 (UniProt O94906)	inactive: 0	inactive: 0	inactive: 0.038	inactive: 0.022	inactive: 0.005	inactive: -0.008	inactive: 0.001	inactive: -0.022	inactive: 0.053	inactive: 0.007
PRKCSH (UniProt P14314)	inactive: -0.008	inactive: 0.01	inactive: 0.007	inactive: 0.019	inactive: -0.026	inactive: -0.004	inactive: 0.047	inactive: -0.057	inactive: 0.001	inactive: 0
PPP5C (UniProt P53041)	inactive: -0.003	inactive: -0.01	inactive: 0.006	inactive: -0.025	inactive: 0.012	inactive: -0.015	inactive: -0.006	inactive: 0.023	inactive: -0.004	inactive: -0.004
PRPF4B (UniProt Q13523)	inactive: 0.009	inactive: 0.002	inactive: -0.022	inactive: 0.008	inactive: -0.014	inactive: -0.047	inactive: -0.047	inactive: 0.011	inactive: -0.007	inactive: 0.019
PROSER2 (UniProt Q86WR7)	inactive: 0.056	inactive: -0.009	inactive: 0.023	inactive: -0.029	inactive: -0.054	inactive: 0.051	inactive: -0.013	inactive: 0.038	inactive: -0.03	inactive: -0.03
PPP4R1 (UniProt Q8TF05)	inactive: 0.002	inactive: 0.005	inactive: 0.026	inactive: -0.02	inactive: -0.013	inactive: -0.021	inactive: 0.002	inactive: -0.003	inactive: -0.012	inactive: 0
PRPF19 (UniProt Q9UMS4)	inactive: -0.006	inactive: -0.003	inactive: 0.009	inactive: 0.013	inactive: 0.015	inactive: -0.014	inactive: 0.023	inactive: -0.004	inactive: -0.017	inactive: -0.008
PRORP (UniProt O15091)	inactive: 0.013	inactive: 0.007	inactive: -0.075	inactive: 0.012	inactive: 0.053	inactive: 0.107	inactive: -0.087	inactive: 0.052	inactive: -0.133	inactive: -0.017
PRKAR1A (UniProt P10644)	inactive: -0.017	inactive: -0.011	inactive: 0	inactive: -0.013	inactive: 0.015	inactive: -0.045	inactive: -0.02	inactive: 0.034	inactive: 0.006	inactive: 0.041
PPP1R9A isoform 3 (UniProt Q9ULJ8)	inactive: 0.04	inactive: -0.053	inactive: -0.065	inactive: -0.011	inactive: -0.058	inactive: -0.02	inactive: -0.066	inactive: 0.022	inactive: -0.043	inactive: -0.004
PPP3R1 (UniProt P63098)	inactive: 0.093	inactive: -0.027	inactive: 0.024	inactive: 0.015	inactive: 0.013	inactive: -0.068	inactive: 0.026	inactive: 0.035	inactive: 0.023	inactive: -0.031
PPIH (UniProt O43447)	inactive: 0.012	inactive: -0.009	inactive: -0.002	inactive: -0.029	inactive: -0.02	inactive: -0.015	inactive: 0.04	inactive: 0.002	inactive: 0.026	inactive: 0.004
PPP1R12A (UniProt O14974)	inactive: -0.016	inactive: 0.013	inactive: 0.032	inactive: -0.021	inactive: 0.006	inactive: 0.008	inactive: -0.01	inactive: 0.005	inactive: 0.015	inactive: -0.01
PPP2R5E (UniProt Q16537)	inactive: 0.025	inactive: 0.002	inactive: -0.026	inactive: -0.035	inactive: 0.022	inactive: 0.038	inactive: 0.006	inactive: -0.013	inactive: 0.034	inactive: -0.005
PREPL (UniProt Q4J6C6)	inactive: 0.033	inactive: -0.009	inactive: -0.006	inactive: -0.027	inactive: -0.02	inactive: 0.029	inactive: 0.002	inactive: 0.001	inactive: 0	inactive: 0.009
PRPF38A (UniProt Q8NAV1)	inactive: 0	inactive: -0.001	inactive: 0.01	inactive: -0.011	inactive: 0.054	inactive: 0.027	inactive: -0.128	inactive: 0.094	inactive: -0.075	inactive: 0.018
PPP4R3A (UniProt Q6IN85)	inactive: 0.041	inactive: -0.013	inactive: 0.005	inactive: 0.026	inactive: 0.026	inactive: -0.021	inactive: -0.044	inactive: -0.01	inactive: -0.017	inactive: -0.001
PRKCA (UniProt P17252)	inactive: 0.015	active: 0.366	inactive: -0.012	inactive: 0.069	inactive: 0.032	inactive: -0.015	inactive: -0.094	inactive: -0.002	inactive: 0.033	inactive: -0.045
PRKDC (UniProt P78527)	inactive: 0.096	inactive: 0.318	inactive: 0.033	inactive: 0.01	inactive: -0.014	inactive: -0.021	inactive: 0.031	inactive: -0.057	inactive: 0.038	inactive: -0.01
PRKAR2A (UniProt P13861)	inactive: 0.044	inactive: -0.064	inactive: 0.033	inactive: -0.032	inactive: 0.018	inactive: 0.015	inactive: 0.005	inactive: 0	inactive: 0.011	inactive: 0.036
PPM1A isoform 3 (UniProt P35813)	inactive: -0.008	inactive: 0.008	inactive: -0.051	inactive: -0.034	inactive: -0.029	inactive: 0.003	inactive: -0.024	inactive: -0.02	inactive: 0.011	inactive: -0.028
PPIL4 (UniProt Q8WUA2)	inactive: 0.012	inactive: 0.002	inactive: -0.013	inactive: -0.007	inactive: -0.002	inactive: -0.02	inactive: -0.041	inactive: 0.01	inactive: 0.004	inactive: 0
PRKRA (UniProt O75569)	inactive: -0.043	inactive: -0.01	inactive: 0.035	inactive: 0.011	inactive: 0.013	inactive: 0.045	inactive: -0.038	inactive: 0.002	inactive: 0.056	inactive: 0.019
PPP2R1B isoform 2 (UniProt P30154)	inactive: 0.011	inactive: 0.005	inactive: 0.012	inactive: -0.037	inactive: 0.024	inactive: 0.011	inactive: 0.006	inactive: 0.002	inactive: 0.028	inactive: -0.011
PPIL1 (UniProt Q9Y3C6)	inactive: 0.012	inactive: -0.01	inactive: 0.015	inactive: -0.041	inactive: -0.052	inactive: -0.024	inactive: -0.011	inactive: -0.039	inactive: 0.025	inactive: -0.02
PRPF31 (UniProt Q8WWY3)	inactive: 0.016	inactive: 0.008	inactive: 0.013	inactive: 0.054	inactive: 0.022	inactive: 0.016	inactive: -0.004	inactive: 0.008	inactive: -0.015	inactive: 0.035

Copied from the list:
log2 fold change [9] with PPIH (UniProt O43447) reads inactive: 0.026
log2 fold change [3] with PPP1R12A (UniProt O14974) reads inactive: 0.032

Whole records as entered above. Order of values: log2 fold change [1] | log2 fold change [2] | log2 fold change [3] | log2 fold change [4] | log2 fold change [5] | log2 fold change [6] | log2 fold change [7] | log2 fold change [8] | log2 fold change [9] | log2 fold change [10]
PPP5C (UniProt P53041) is listed as inactive: -0.003 | inactive: -0.01 | inactive: 0.006 | inactive: -0.025 | inactive: 0.012 | inactive: -0.015 | inactive: -0.006 | inactive: 0.023 | inactive: -0.004 | inactive: -0.004
PPIL1 (UniProt Q9Y3C6) is listed as inactive: 0.012 | inactive: -0.01 | inactive: 0.015 | inactive: -0.041 | inactive: -0.052 | inactive: -0.024 | inactive: -0.011 | inactive: -0.039 | inactive: 0.025 | inactive: -0.02
